Results reported in patent US20230312652A1 (Aarhus Universitet, priority 2020, published 2023).

Assay: general procedure: Fmoc solid-phase peptide synthesis; 2-CTC Resin (Sub 1.05 mmol/g); HBTU/DIPEA
Conditions: whole synthesis, HPLC, scale of the general procedure 0.2 mmol

**Q.** Which “purity (crude or final not stated)” value does the source give for Ac-MTEPVEHEEDV-NH2 here?
**A.** 99.0%

**Q.** For “YARAAARNARAEKEQEMTDPVDHDEDVQGAVQ (Linear peptide)”, which “purity (crude or final not stated)” value is on record?
**A.** 96.0%

**Q.** Which “purity (crude or final not stated)” value does the source give for [MIGSVEQEENA] here?
**A.** 93.2%

Same assay, conditions: whole synthesis, HPLC, scale of the general procedure 0.2 mmol, head-to-tail ring

**Q.** With [MIEPVEHEESR] as the substance, how does the “purity (crude or final not stated)” value read?
**A.** 95.6%

**Q.** Which “purity (crude or final not stated)” value does the source give for [MTAPVAHAEDV] here?
**A.** 95.8%

**Q.** For [MTDPVDHDEDV], which “purity (crude or final not stated)” value is on record?
**A.** 96.2%

**Q.** With [MTEPVEHEEDV] as the substance, how does the “purity (crude or final not stated)” value read?
**A.** 99.7%

Plain letter strings leave the end groups untold.
